The list shows a part of the results.
Legend:
Test in all cases: log2 fold change, soluble protein after heating vs DMSO (PISA); higher = thermal stabilisation; K562 cells, 10 uM, 30 min; active = over 0.2 and 3.5 SD of the protein, either way, in both replicates (recomputed)
[1] = compound: CS(=O)(=O)c1ccc(-c2cnc(N)c(C(=O)Nc3ccccc3)n2)cc1
Procedure, shortened: (§1)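 Quantification of soluble protein used TMTpro 16plex LC-MS/MS, with channel sums equalised. Samples were the supernatant after 21,000xg for 90 min of pooled aliquots from K562 cells (2×10^6 cells/mL) treated with 10 μM compound for 30 min, heated for 3 min over 48°C-58°C, and extracted in PBS with 0.5% NP-40 at 4°C. Values, from duplicates, describe thermal stability against control samples on a log2 fold-change scale.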

The chains behind the UniProt entries cited, without tags or fusion partners. Where a name states a change or a piece, a line headed by the entry shows the natural chain unless it says otherwise.
UniProt P05165: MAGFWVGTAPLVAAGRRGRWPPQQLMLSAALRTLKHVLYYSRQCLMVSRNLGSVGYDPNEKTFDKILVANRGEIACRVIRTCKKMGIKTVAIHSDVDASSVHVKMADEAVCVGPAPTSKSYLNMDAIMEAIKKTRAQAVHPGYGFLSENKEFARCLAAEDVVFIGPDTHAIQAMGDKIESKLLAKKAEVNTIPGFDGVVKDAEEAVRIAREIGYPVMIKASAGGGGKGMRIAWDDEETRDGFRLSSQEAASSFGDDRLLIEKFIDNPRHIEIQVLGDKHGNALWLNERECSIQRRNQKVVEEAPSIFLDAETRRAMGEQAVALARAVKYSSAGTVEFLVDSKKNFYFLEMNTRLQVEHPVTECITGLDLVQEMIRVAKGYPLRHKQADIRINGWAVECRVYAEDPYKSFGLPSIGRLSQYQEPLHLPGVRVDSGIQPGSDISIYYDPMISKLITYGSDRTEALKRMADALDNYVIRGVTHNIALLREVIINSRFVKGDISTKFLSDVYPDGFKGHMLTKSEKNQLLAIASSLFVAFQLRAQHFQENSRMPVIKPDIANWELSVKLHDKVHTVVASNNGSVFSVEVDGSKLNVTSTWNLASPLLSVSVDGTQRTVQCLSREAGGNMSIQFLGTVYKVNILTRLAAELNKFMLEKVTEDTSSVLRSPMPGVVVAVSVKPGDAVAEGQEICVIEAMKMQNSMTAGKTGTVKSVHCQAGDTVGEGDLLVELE
UniProt P61457: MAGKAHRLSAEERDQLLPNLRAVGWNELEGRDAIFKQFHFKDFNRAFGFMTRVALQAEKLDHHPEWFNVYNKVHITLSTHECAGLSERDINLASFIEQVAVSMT
UniProt P0DJ07: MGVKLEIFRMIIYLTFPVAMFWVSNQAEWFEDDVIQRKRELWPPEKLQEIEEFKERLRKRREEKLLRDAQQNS
UniProt Q9H0N5: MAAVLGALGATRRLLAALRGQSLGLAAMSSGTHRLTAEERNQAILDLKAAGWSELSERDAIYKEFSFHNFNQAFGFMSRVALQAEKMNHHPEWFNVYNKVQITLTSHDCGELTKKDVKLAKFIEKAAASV
UniProt Q8NBM8: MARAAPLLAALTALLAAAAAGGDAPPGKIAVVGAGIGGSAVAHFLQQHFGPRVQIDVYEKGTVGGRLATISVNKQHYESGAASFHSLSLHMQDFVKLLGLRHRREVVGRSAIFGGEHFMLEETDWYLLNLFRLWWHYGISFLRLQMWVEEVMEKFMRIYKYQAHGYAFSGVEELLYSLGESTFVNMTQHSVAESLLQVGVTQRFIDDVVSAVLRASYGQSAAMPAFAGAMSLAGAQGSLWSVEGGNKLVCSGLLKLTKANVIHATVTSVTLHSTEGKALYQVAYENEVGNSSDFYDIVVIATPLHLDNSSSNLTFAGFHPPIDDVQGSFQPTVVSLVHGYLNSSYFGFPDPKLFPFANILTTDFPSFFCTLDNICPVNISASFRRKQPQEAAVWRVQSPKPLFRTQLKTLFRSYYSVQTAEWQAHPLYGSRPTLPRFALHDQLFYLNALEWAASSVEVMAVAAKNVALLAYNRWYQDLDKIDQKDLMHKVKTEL
UniProt Q9NP74: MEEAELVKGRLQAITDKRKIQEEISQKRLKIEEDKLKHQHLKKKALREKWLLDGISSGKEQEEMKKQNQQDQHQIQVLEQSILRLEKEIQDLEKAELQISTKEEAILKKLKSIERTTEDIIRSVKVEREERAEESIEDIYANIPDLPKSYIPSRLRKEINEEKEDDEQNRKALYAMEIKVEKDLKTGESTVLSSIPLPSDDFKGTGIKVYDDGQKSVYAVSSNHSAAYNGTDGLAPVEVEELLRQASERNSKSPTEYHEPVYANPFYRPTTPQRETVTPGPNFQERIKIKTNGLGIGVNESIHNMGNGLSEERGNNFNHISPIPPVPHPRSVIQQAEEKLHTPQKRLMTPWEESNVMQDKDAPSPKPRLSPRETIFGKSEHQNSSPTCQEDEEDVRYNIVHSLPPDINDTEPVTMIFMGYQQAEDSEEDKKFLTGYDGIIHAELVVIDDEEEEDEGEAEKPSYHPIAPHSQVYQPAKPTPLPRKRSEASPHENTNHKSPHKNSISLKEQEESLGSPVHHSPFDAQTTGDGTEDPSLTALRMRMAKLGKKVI
UniProt Q14690: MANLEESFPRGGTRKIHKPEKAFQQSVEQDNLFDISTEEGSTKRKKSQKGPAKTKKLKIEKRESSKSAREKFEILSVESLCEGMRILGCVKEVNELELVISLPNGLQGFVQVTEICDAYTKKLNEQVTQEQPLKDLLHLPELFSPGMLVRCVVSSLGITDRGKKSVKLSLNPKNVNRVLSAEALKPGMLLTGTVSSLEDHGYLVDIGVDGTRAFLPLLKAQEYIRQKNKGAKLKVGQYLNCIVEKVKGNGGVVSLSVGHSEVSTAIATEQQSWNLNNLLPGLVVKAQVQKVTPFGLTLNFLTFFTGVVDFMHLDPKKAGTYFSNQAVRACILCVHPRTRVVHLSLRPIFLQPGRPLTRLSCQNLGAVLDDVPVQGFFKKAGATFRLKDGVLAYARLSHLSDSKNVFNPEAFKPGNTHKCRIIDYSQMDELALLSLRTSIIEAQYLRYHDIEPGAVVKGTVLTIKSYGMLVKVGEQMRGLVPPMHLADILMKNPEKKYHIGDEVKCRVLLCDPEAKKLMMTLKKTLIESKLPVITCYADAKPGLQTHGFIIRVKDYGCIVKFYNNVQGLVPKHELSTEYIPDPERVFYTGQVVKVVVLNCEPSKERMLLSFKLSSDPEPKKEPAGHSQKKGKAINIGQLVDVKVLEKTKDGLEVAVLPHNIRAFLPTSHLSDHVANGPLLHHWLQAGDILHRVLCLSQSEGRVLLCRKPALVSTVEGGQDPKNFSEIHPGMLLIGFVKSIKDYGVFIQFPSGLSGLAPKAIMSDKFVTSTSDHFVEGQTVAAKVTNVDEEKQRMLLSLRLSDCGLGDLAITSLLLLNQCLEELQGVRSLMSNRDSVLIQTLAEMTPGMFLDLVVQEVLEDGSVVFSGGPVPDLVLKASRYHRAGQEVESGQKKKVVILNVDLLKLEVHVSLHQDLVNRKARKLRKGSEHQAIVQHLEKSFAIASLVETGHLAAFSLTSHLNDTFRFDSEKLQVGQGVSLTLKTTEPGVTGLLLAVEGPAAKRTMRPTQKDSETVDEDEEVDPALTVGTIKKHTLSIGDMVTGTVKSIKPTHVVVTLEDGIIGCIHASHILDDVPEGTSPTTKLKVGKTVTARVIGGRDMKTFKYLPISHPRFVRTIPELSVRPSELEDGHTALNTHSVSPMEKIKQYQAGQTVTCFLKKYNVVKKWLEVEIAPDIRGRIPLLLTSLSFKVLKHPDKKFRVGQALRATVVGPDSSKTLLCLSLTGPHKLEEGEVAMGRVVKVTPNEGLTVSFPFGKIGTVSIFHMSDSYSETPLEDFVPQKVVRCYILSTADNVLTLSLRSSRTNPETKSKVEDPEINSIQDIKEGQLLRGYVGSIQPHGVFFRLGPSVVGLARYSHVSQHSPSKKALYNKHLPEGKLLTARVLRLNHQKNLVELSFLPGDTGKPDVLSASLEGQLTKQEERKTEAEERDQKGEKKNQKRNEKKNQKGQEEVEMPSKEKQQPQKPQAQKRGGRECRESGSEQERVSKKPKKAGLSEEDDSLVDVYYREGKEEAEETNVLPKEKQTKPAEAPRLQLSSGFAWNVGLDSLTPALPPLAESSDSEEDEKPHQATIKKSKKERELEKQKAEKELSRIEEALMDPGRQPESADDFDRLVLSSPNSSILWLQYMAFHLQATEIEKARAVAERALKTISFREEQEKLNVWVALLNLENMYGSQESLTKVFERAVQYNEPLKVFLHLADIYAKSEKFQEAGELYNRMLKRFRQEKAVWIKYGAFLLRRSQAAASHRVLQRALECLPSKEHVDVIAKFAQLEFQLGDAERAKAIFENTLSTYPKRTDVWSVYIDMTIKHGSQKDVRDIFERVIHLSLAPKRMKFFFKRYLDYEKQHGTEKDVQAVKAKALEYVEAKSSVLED
UniProt Q96GU1: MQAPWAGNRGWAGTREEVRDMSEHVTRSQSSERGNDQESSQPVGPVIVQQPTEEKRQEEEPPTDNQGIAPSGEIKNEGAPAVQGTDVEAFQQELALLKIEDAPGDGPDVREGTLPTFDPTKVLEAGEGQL
UniProt Q15118, whole entry, looked up: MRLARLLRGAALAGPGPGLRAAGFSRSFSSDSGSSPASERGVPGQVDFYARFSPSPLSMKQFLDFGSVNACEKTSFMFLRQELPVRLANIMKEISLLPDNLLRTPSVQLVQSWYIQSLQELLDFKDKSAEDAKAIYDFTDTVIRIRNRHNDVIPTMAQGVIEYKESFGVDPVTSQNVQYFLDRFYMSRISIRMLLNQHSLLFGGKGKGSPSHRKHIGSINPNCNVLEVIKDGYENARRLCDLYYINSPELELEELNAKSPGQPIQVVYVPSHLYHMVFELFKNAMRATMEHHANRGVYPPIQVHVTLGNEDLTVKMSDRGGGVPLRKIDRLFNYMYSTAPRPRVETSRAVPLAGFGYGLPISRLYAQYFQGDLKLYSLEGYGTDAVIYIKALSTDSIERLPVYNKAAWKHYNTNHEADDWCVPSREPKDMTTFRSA
UniProt Q8NCN5: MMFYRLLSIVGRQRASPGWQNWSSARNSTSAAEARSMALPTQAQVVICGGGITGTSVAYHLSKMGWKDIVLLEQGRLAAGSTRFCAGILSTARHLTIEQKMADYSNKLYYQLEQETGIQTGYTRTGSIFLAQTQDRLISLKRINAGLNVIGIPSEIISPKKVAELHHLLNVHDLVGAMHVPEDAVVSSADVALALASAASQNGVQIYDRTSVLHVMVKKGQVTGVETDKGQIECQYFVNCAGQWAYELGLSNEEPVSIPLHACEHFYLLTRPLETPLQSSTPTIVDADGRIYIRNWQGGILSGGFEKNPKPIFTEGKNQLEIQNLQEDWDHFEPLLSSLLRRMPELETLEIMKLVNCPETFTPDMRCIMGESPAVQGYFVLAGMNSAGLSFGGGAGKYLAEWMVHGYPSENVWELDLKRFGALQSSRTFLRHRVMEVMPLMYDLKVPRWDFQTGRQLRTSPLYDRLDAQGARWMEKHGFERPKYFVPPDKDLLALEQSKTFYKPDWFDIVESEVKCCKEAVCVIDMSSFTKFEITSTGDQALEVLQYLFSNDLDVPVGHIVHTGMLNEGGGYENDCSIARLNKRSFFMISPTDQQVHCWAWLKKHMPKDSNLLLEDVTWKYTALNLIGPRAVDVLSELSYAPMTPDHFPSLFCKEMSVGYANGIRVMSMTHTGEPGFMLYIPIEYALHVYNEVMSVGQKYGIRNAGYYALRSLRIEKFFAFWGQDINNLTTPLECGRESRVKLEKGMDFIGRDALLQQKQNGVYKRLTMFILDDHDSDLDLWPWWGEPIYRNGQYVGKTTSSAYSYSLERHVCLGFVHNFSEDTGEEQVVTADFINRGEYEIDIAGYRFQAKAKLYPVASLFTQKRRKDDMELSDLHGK
UniProt Q7L3T8: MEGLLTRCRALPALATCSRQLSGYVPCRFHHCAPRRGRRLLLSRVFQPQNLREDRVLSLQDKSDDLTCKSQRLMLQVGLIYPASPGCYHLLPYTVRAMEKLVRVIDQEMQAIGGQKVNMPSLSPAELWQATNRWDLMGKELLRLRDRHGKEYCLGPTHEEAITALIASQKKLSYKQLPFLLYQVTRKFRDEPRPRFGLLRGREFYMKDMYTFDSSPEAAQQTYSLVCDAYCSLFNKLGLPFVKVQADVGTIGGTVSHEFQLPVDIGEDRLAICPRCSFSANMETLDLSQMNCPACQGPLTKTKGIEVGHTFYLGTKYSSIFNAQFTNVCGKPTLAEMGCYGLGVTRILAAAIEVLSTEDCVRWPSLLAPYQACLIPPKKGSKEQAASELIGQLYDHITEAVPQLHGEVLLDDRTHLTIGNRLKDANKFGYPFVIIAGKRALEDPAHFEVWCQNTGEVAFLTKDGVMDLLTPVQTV
UniProt A6NDB9: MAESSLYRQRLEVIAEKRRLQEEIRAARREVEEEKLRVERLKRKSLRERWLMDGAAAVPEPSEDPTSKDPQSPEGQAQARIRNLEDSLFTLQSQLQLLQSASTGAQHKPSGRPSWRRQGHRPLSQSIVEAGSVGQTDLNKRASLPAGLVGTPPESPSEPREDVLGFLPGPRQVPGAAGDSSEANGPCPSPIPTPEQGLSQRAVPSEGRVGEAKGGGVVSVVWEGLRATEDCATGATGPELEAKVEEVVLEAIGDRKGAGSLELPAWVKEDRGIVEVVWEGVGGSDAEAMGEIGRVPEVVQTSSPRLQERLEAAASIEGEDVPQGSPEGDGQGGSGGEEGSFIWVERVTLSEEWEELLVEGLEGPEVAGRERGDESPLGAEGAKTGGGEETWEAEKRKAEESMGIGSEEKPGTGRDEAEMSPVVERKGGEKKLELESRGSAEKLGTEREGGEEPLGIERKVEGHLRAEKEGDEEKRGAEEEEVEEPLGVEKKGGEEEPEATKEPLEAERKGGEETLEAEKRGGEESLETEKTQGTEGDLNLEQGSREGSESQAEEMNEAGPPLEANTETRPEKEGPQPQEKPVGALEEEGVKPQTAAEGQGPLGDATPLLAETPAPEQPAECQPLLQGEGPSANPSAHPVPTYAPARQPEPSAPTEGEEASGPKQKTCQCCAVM

crizotinib = compound: C[C@@H](Oc1cc(-c2cnn(C3CCNCC3)c2)cnc1N)c1c(Cl)ccc(F)c1Cl [crizotinib]
Procedure, shortened: as §1

[2] = compound: C[C@@H]1COCCN1C2=NC(=NC(=C2)C3(CC3)S(=O)(=O)C)C4=C5C=CNC5=CC=C4
Procedure, shortened: as §1

[3] = compound: C[C@H](C1=CC=C(C=C1)C(=O)NC2=C3C=CNC3=NC=C2)N
Procedure, shortened: as §1

duvelisib = compound: C[C@H](Nc1ncnc2nc[nH]c12)c1cc2cccc(Cl)c2c(=O)n1-c1ccccc1 [duvelisib]
Procedure, shortened: as §1

gandotinib = compound: Cc1cc(Nc2cc(CN3CCOCC3)c3nc(C)c(Cc4ccc(Cl)cc4F)n3n2)n[nH]1 [gandotinib]
Procedure, shortened: as §1

tozasertib = compound: Cc1cc(Nc2cc(N3CCN(C)CC3)nc(Sc3ccc(NC(=O)C4CC4)cc3)n2)n[nH]1 [tozasertib]
Procedure, shortened: as §1

[4] = compound: Cc1cc(SCc2sc(-c3ccc(C(F)(F)F)cc3)nc2C)ccc1OCC(=O)O
Procedure, shortened: as §1

doramapimod = compound: Cc1ccc(-n2nc(C(C)(C)C)cc2NC(=O)Nc2ccc(OCCN3CCOCC3)c3ccccc23)cc1 [doramapimod]
Procedure, shortened: as §1

ispinesib = compound: Cc1ccc(C(=O)N(CCCN)[C@@H](c2nc3cc(Cl)ccc3c(=O)n2Cc2ccccc2)C(C)C)cc1 [ispinesib]
Procedure, shortened: as §1

bafetinib = compound: Cc1ccc(NC(=O)c2ccc(CN3CC[C@H](N(C)C)C3)c(C(F)(F)F)c2)cc1Nc1nccc(-c2cncnc2)n1 [bafetinib]
Procedure, shortened: as §1

[5] = compound: Cc1cccc(CC(=O)N2CCc3c2ccc(-c2cn(C)c4ncnc(N)c24)c3F)n1
Procedure, shortened: as §1

nilotinib = compound: Cc1cn(-c2cc(NC(=O)c3ccc(C)c(Nc4nccc(-c5cccnc5)n4)c3)cc(C(F)(F)F)c2)cn1 [nilotinib]
Procedure, shortened: as §1

[6] = compound: Cc1nc(Nc2n[nH]c3c2CN(C(=O)N[C@H](CN(C)C)c2ccccc2)C3(C)C)c2sccc2n1
Procedure, shortened: as §1

dasatinib = compound: Cc1nc(Nc2ncc(C(=O)Nc3c(C)cccc3Cl)s2)cc(N2CCN(CCO)CC2)n1 [dasatinib]
Procedure, shortened: as §1

[7] = compound: Cc1ncc(-c2ccnc(Nc3ccc(S(C)(=O)=O)cc3)n2)n1C(C)C
Procedure, shortened: as §1

[8] = compound: Cn1cc(-c2ccc3c(c2)CCN3C(=O)Cc2cccc(C(F)(F)F)c2)c2c(N)ncnc21
Procedure, shortened: as §1

[9] = compound: Cn1cc(-c2ccc3nnc(C(F)(F)c4ccc5ncccc5c4)n3n2)cn1
Procedure, shortened: as §1

tipifarnib = compound: Cn1cncc1[C@@](N)(c1ccc(Cl)cc1)c1ccc2c(c1)c(-c1cccc(Cl)c1)cc(=O)n2C [tipifarnib]
Procedure, shortened: as §1

mubritinib = compound: FC(F)(F)c1ccc(/C=C/c2nc(COc3ccc(CCCCn4ccnn4)cc3)co2)cc1 [mubritinib]
Procedure, shortened: as §1

Measured: log2 fold change

PCCA (UniProt P05165)
inactive: [1] 0.002 | crizotinib -0.023 | [2] 0.044 | [3] 0.037 | duvelisib 0.056 | gandotinib 0.039 | tozasertib -0.074 | [4] -0.011 | doramapimod 0.042 | ispinesib -0.083 | bafetinib 0.03 | [5] -0.026 | nilotinib 0.018 | [6] 0.027 | dasatinib -0.083 | [7] -0.08 | [8] 0.034 | [9] 0.035 | tipifarnib -0.013 | mubritinib 0.056

PCBD1 (UniProt P61457)
inactive: [1] 0.045 | crizotinib 0.068 | [2] 0.097 | [3] -0.088 | duvelisib 0.044 | gandotinib 0.064 | tozasertib -0.014 | [4] -0.008 | doramapimod 0.004 | ispinesib 0.11 | bafetinib -0.07 | [5] -0.021 | nilotinib 0.019 | [6] 0.009 | dasatinib 0.069 | [7] -0.019 | [8] 0.045 | [9] 0.087 | tipifarnib -0.003 | mubritinib 0.003

PCNA (UniProt P12004)
inactive: [1] -0.008 | crizotinib 0.046 | [2] 0.019 | [3] -0.026 | duvelisib 0.031 | gandotinib 0.012 | tozasertib -0.045 | [4] -0.025 | doramapimod -0.028 | ispinesib 0.07 | bafetinib -0.027 | [5] -0.013 | nilotinib 0.012 | [6] -0.05 | dasatinib 0.035 | [7] 0.014 | [8] 0.018 | [9] 0.01 | tipifarnib -0.006 | mubritinib 0.043

PET100 (UniProt P0DJ07)
inactive: [1] 0.114 | crizotinib 0.061 | [2] 0.104 | [3] -0.021 | duvelisib 0.05 | gandotinib -0.045 | tozasertib -0.039 | [4] -0.045 | doramapimod 0.008 | ispinesib 0.148 | bafetinib -0.02 | [5] -0.005 | nilotinib 0.002 | [6] 0.05 | dasatinib -0.056 | [7] -0.038 | [8] 0.039 | [9] 0.061 | tipifarnib 0.198 | mubritinib 0.051

PCYT2 isoform 3 (UniProt Q99447)
inactive: [1] -0.009 | crizotinib 0.054 | [2] 0.037 | [3] -0.073 | duvelisib 0.024 | gandotinib -0.056 | tozasertib -0.059 | [4] 0.009 | doramapimod -0.026 | ispinesib 0.185 | bafetinib -0.011 | [5] 0.011 | nilotinib -0.016 | [6] 0.033 | dasatinib -0.037 | [7] 0.027 | [8] 0.041 | [9] 0.038 | tipifarnib -0.117 | mubritinib 0.017

PCBD2 (UniProt Q9H0N5)
inactive: [1] 0.019 | crizotinib 0.103 | [2] 0.025 | [3] -0.044 | duvelisib 0.095 | gandotinib 0.013 | tozasertib -0.007 | [4] -0.053 | doramapimod -0.027 | ispinesib 0.03 | bafetinib -0.019 | [5] -0.002 | nilotinib 0.023 | [6] 0.01 | dasatinib 0.041 | [7] -0.004 | [8] 0.04 | [9] 0.081 | tipifarnib 0.003 | mubritinib 0.084

PCYOX1L (UniProt Q8NBM8)
inactive: [1] -0.021 | crizotinib 0.138 | [2] 0.098 | [3] -0.023 | duvelisib 0.002 | gandotinib 0.016 | tozasertib 0.024 | [4] -0.028 | doramapimod 0.03 | ispinesib 0.166 | bafetinib -0.006 | [5] 0.013 | nilotinib 0.005 | [6] 0.041 | dasatinib 0.053 | [7] -0.032 | [8] 0.085 | [9] 0.029 | tipifarnib 0.044 | mubritinib 0.013

PAICS (UniProt P22234)
inactive: [1] 0.019 | crizotinib 0.008 | [2] 0.027 | [3] -0.023 | duvelisib 0.016 | gandotinib 0.019 | tozasertib -0.046 | [4] -0.034 | doramapimod -0.017 | ispinesib 0.003 | bafetinib 0.003 | [5] -0.046 | nilotinib 0.005 | [6] 0.001 | dasatinib 0.048 | [7] -0.022 | [8] 0.016 | [9] -0.011 | tipifarnib 0.025 | mubritinib 0.018

PALMD (UniProt Q9NP74)
inactive: [1] -0.42 | crizotinib 0.007 | [2] -0.017 | [3] -0.051 | duvelisib 0.038 | gandotinib 0.009 | tozasertib -0.012 | [4] 0.002 | doramapimod -0.031 | ispinesib 0.033 | bafetinib 0.019 | [5] -0.016 | nilotinib 0.029 | [6] -0.076 | dasatinib 0.042 | [7] 0.064 | [8] -0.012 | [9] -0.076 | tipifarnib 0.059 | mubritinib -0.086

PDCD11 (UniProt Q14690)
inactive: [1] -0.054 | crizotinib -0.117 | [2] 0.196 | [3] 0.056 | duvelisib 0.053 | gandotinib -0.073 | tozasertib -0.132 | [4] -0.171 | doramapimod -0.03 | ispinesib -0.173 | bafetinib 0.094 | [5] -0.008 | nilotinib -0.215 | [6] 0.196 | dasatinib 0.186 | [7] -0.093 | [8] 0.009 | [9] 0.109 | tipifarnib -0.152 | mubritinib 0.134

PAGR1 (UniProt Q9BTK6)
inactive: [1] -0.046 | crizotinib 0.001 | [2] -0.146 | [3] -0.058 | duvelisib -0.083 | gandotinib 0.097 | tozasertib 0.057 | [4] -0.045 | doramapimod 0.055 | ispinesib -0.134 | bafetinib 0.118 | [5] 0 | nilotinib 0.011 | [6] -0.018 | dasatinib 0.011 | [7] 0.037 | [8] -0.041 | [9] 0.005 | tipifarnib -0.145 | mubritinib 0.015

PAGE5 (UniProt Q96GU1)
inactive: [1] -0.09 | crizotinib 0.135 | [2] 0.16 | [3] -0.034 | duvelisib 0.423 | gandotinib 0.22 | tozasertib 0.08 | [4] -0.091 | doramapimod -0.128 | ispinesib 0.202 | bafetinib -0.099 | [5] -0.218 | nilotinib 0.029 | [6] -0.093 | dasatinib 0.032 | [7] -0.054 | [8] 0.204 | [9] 0.145 | tipifarnib 0.504 | mubritinib 0.002

PDK1 (UniProt Q15118)
inactive: [1] 0.06 | crizotinib -0.012 | [2] 0.102 | [3] -0.034 | duvelisib 0.068 | gandotinib 0.007 | tozasertib -0.016 | [4] 0.019 | doramapimod -0.012 | ispinesib 0.067 | bafetinib -0.032 | [5] 0.026 | nilotinib 0.059 | [6] 0.02 | dasatinib -0.069 | [7] 0.014 | [8] 0.104 | [9] -0.029 | tipifarnib 0.058 | mubritinib 0.023

PDPR (UniProt Q8NCN5)
inactive: [1] 0.061 | crizotinib 0.079 | [2] 0.026 | [3] -0.104 | duvelisib 0.027 | gandotinib 0.023 | tozasertib 0.024 | [4] -0.004 | doramapimod -0.013 | ispinesib 0.065 | bafetinib -0.033 | [5] 0.016 | nilotinib 0.102 | [6] -0.056 | dasatinib -0.013 | [7] -0.024 | [8] 0.037 | [9] 0.046 | tipifarnib 0.004 | mubritinib 0.076

PACS2 isoform 2 (UniProt Q86VP3)
inactive: [1] 0.061

PARS2 (UniProt Q7L3T8)
inactive: [1] -0.051 | crizotinib 0.102 | [2] -0.058 | [3] 0.007 | duvelisib 0.027 | gandotinib 0.021 | tozasertib -0.057 | [4] -0.004 | doramapimod -0.022 | ispinesib -0.009 | bafetinib 0.04 | [5] -0.078 | nilotinib 0.018 | [6] 0.098 | dasatinib -0.001 | [7] 0.065 | [8] 0.019 | [9] -0.039 | tipifarnib 0.06 | mubritinib 0.012

PALM3 (UniProt A6NDB9)
inactive: [1] 0.025 | crizotinib 0.036 | [2] 0.058 | [3] -0.062 | duvelisib 0.029 | gandotinib -0.028 | tozasertib -0.046 | [4] -0.12 | doramapimod -0.073 | ispinesib 0.123 | bafetinib 0.024 | [5] -0.089 | nilotinib 0.066 | [6] -0.055 | dasatinib 0.07 | [7] -0.035 | [8] -0.007 | [9] -0.062 | tipifarnib 0.033 | mubritinib 0.029

Taken from the listing (2 entries):
PDPR (UniProt Q8NCN5)
inactive: [1] 0.061 | crizotinib 0.079 | [2] 0.026 | [3] -0.104 | duvelisib 0.027 | gandotinib 0.023 | tozasertib 0.024 | [4] -0.004 | doramapimod -0.013 | ispinesib 0.065 | bafetinib -0.033 | [5] 0.016 | nilotinib 0.102 | [6] -0.056 | dasatinib -0.013 | [7] -0.024 | [8] 0.037 | [9] 0.046 | tipifarnib 0.004 | mubritinib 0.076

PACS2 isoform 2 (UniProt Q86VP3)
inactive: [1] 0.061
